According to the supplement of paper PMC10849652:
This is one part of the list.

Amino acid sequences for entries named in this document (tags omitted). A change or cut given only in a name is not applied to a line headed by its entry.
UniProt P12980: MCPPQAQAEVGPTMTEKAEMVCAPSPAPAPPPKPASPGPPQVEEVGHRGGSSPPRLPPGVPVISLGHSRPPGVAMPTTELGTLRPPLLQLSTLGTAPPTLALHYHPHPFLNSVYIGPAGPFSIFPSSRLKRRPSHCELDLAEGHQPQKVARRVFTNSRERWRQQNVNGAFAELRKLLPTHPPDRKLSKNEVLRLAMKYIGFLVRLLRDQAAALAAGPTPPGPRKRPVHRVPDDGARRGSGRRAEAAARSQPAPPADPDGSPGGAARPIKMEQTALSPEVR
UniProt O00462: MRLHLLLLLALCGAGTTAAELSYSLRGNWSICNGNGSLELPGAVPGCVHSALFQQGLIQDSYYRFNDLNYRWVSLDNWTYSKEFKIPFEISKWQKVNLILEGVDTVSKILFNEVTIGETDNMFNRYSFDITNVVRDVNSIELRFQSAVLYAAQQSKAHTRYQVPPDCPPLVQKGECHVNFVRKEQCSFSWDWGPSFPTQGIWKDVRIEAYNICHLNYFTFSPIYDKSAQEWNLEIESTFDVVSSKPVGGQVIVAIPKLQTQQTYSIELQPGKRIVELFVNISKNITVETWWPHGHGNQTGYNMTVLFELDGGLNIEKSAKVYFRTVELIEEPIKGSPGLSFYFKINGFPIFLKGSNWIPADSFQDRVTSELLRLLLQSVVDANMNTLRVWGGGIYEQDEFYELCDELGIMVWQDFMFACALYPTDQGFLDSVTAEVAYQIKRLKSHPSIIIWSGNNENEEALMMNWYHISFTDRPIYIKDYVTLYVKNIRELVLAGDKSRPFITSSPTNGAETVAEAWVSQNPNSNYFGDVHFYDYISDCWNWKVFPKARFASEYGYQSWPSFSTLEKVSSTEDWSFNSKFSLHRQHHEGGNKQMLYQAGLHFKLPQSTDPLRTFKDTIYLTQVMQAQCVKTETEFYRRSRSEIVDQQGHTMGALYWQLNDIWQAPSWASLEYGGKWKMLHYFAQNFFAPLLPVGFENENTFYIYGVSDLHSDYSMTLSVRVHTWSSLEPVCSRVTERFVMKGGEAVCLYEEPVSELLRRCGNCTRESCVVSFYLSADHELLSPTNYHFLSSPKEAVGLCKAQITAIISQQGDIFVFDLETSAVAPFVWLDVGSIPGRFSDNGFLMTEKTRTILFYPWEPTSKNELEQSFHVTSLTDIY
UniProt O43325: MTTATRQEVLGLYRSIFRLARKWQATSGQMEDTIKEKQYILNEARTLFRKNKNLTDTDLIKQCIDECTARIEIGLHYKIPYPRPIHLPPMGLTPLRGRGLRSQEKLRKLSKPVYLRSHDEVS
UniProt P36941: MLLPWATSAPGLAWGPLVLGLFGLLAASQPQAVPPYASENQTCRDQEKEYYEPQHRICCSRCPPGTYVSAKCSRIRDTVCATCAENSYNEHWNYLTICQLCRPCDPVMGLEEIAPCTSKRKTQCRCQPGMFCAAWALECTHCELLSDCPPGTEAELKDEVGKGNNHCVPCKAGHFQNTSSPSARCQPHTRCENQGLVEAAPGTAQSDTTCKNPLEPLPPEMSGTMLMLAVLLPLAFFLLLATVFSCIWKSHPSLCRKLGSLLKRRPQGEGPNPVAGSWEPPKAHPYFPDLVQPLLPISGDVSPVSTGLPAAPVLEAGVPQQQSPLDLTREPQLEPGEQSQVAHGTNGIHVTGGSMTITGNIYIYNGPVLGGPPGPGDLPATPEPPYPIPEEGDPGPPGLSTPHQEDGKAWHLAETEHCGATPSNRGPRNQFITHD
UniProt P27816: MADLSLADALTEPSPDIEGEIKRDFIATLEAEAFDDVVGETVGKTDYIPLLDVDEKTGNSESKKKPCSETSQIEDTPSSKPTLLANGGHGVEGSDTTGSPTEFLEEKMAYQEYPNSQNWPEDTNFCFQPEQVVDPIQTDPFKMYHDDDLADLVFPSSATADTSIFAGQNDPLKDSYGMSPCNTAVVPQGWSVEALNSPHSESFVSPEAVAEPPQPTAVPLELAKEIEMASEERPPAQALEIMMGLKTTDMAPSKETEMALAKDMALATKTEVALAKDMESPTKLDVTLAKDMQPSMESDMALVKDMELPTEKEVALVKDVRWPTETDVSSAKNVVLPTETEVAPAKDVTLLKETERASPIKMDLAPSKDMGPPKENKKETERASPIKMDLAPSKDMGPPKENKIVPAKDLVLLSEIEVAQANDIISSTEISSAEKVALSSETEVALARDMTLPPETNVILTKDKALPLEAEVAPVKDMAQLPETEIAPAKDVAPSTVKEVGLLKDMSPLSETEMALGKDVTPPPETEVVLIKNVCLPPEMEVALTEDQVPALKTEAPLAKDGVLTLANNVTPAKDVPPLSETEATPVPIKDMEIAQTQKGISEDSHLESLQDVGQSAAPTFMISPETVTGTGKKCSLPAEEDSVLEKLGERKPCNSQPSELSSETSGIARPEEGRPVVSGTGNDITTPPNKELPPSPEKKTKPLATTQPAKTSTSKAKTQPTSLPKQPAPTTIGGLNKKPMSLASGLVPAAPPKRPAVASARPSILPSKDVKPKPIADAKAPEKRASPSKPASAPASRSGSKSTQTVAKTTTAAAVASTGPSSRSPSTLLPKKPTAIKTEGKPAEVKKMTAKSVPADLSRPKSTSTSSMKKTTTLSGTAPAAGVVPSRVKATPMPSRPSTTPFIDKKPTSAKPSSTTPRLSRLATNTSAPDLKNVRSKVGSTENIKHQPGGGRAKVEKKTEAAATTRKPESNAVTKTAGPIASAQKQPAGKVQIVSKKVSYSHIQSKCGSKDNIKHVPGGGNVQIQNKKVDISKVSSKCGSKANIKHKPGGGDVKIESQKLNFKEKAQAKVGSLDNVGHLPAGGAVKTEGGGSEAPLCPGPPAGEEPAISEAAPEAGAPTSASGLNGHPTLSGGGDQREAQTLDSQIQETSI
UniProt Q9NTJ4: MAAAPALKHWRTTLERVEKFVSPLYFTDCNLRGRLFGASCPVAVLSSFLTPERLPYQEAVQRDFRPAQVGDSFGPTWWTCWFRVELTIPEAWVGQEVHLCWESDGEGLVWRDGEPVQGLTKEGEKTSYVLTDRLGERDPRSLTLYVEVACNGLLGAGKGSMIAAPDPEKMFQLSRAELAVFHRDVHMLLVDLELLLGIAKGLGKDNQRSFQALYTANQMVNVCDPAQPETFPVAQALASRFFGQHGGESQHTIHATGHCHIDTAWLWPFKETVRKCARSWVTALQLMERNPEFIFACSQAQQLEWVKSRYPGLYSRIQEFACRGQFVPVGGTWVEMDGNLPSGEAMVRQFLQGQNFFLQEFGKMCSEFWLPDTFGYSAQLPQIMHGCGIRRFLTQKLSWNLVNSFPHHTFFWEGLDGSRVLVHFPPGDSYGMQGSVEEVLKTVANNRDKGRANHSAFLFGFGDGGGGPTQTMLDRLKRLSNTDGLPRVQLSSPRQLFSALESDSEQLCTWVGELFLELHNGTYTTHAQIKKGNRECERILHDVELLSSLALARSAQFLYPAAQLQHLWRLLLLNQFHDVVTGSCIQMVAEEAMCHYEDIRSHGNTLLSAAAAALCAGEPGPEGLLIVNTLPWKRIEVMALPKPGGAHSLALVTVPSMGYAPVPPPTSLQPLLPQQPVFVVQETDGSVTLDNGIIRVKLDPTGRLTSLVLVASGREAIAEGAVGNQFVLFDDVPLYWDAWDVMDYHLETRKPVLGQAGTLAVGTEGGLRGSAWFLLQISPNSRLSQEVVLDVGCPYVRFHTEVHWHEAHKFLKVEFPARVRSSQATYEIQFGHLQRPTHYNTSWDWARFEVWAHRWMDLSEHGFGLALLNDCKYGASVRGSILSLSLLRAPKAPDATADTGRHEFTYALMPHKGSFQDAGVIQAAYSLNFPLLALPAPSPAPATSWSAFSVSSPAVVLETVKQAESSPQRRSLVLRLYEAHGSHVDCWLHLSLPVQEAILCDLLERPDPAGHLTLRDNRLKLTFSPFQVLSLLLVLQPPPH
UniProt O15479: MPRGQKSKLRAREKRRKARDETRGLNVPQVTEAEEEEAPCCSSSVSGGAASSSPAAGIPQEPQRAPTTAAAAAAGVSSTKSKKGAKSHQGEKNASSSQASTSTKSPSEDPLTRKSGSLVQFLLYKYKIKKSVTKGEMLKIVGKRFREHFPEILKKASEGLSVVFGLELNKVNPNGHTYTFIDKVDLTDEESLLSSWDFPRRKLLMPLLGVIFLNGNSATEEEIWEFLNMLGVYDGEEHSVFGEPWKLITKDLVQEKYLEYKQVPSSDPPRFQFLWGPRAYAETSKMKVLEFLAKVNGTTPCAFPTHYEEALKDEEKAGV
UniProt P45983: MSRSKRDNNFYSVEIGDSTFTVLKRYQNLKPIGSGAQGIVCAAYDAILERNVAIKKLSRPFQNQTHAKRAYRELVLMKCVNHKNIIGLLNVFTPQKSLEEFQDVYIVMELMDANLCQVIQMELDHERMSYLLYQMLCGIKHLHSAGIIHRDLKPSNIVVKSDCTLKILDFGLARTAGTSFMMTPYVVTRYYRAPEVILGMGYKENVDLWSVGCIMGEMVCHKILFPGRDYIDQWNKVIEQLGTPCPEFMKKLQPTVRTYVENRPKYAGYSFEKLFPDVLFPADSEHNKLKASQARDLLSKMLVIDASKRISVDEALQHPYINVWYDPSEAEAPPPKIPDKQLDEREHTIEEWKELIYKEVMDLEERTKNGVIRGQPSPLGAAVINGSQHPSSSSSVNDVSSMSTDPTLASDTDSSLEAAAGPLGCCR
UniProt Q66K74: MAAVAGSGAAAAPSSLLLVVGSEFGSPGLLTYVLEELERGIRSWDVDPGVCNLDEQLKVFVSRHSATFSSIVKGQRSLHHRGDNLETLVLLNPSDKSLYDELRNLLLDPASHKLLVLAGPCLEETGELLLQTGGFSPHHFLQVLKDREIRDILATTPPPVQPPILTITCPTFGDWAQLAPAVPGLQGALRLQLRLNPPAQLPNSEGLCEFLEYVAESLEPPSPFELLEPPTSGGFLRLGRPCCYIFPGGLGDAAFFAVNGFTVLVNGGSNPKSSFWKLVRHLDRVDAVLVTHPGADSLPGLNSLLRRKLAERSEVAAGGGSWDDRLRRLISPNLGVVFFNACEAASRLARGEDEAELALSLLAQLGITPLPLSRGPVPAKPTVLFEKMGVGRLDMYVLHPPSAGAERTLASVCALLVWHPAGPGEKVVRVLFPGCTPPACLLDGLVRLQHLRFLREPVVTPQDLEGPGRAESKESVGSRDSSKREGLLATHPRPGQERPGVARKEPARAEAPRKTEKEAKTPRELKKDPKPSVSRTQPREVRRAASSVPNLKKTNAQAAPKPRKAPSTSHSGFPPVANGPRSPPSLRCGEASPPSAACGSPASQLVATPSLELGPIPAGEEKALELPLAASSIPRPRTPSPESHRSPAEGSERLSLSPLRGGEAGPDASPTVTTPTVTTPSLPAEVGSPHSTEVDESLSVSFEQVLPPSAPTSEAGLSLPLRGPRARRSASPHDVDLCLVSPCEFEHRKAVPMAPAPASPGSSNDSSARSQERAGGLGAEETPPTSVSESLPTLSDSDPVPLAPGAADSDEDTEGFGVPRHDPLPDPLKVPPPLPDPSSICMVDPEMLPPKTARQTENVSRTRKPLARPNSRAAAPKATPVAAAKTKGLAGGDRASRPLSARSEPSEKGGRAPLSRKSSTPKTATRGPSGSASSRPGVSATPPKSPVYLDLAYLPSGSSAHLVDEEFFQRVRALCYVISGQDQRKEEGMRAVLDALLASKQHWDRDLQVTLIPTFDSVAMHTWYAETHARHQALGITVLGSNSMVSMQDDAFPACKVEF
UniProt Q9NU23: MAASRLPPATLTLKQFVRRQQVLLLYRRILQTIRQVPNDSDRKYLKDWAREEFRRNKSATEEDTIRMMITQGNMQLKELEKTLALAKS

compound: Cc1sc2c(c1C)C(c1ccc(Cl)cc1)=N[C@@H](CC(=O)OC(C)(C)C)c1nnc(C)n1-2; experiment: log2 fold change, soluble protein after heating vs DMSO (PISA); higher = thermal stabilisation; K562 cells, 10 uM, 30 min; active = over 0.2 and 3.5 SD of the protein, either way, in both replicates (recomputed)
Summary of the method: (§1)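 K562 cells at 2×10^6 cells/mL were treated for 30 min with 10 μM compound, and aliquots were heated for 3 min over 48°C-58°C before pooling. Extraction used PBS with 0.5% NP-40 at 4°C, and soluble protein was the supernatant after 21,000xg for 90 min, measured by TMTpro 16plex LC-MS/MS with channel sums equalised. Thermal stability values, relative to control samples and from duplicates, are log2 fold changes.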

Row | Target | log2 fold change
1 | LYL1 (UniProt P12980) | inactive: 0.047
2 | MANBA (UniProt O00462) | inactive: 0.03
3 | LUC7L (UniProt Q9NQ29) | inactive: 0
4 | MAN2A1 (UniProt Q16706) | inactive: -0.001
5 | LYSMD3 (UniProt Q7Z3D4) | inactive: 0.093
6 | LYRM1 (UniProt O43325) | inactive: 0.005

compound: c1ccc([C@@H]2C[C@H]2NC2CCNCC2)cc1; experiment: as above
Summary of the method: as §1

Row | Target | log2 fold change
7 | LTBR (UniProt P36941) | inactive: 0.091
8 | MAP3K4 isoform 2 (UniProt Q9Y6R4) | inactive: 0.018
9 | LYAR (UniProt Q9NX58) | inactive: 0.021
10 | LTN1 isoform 3 (UniProt O94822) | inactive: -0.005
11 | MAP4 (UniProt P27816) | inactive: 0.037
12 | MACROD1 (UniProt Q9BQ69) | inactive: -0.039
13 | MAPRE2 (UniProt Q15555) | inactive: -0.011
14 | LUC7L2 (UniProt Q9Y383) | inactive: 0.014
15 | MAN2C1 isoform 4 (UniProt Q9NTJ4) | inactive: 0.051
16 | MAGEB2 (UniProt O15479) | inactive: 0.061
17 | MACF1 (UniProt Q9UPN3) | inactive: -0.012
18 | LRRC59 (UniProt Q96AG4) | inactive: -0.011
19 | MAP3K7 (UniProt O43318) | inactive: 0.023
20 | MAIP1 (UniProt Q8WWC4) | inactive: 0.002
21 | MAPKAPK2 (UniProt P49137) | inactive: -0.056
22 | MAPK8 isoform 3 (UniProt P45983) | inactive: -0.055
23 | MAP1S (UniProt Q66K74) | inactive: -0.028
24 | MAN1A1 (UniProt P33908) | inactive: 0.021
25 | MAGEC1 (UniProt O60732) | inactive: -0.087
26 | MARK2 (UniProt E9PC69) | inactive: -0.052
27 | MAP4 (UniProt E7EVA0) | inactive: 0.005
28 | MAP2K1 (UniProt Q02750) | inactive: 0
29 | LYRM2 (UniProt Q9NU23) | inactive: 0
30 | LYL1 (UniProt P12980) | inactive: -0.238
31 | MANBA (UniProt O00462) | inactive: 0.034
32 | LUC7L (UniProt Q9NQ29) | inactive: 0.027
33 | MAN2A1 (UniProt Q16706) | inactive: 0.028
34 | LYSMD3 (UniProt Q7Z3D4) | inactive: -0.076
35 | LYRM1 (UniProt O43325) | inactive: 0.006
